These are yes or no findings as the source states them, for the method shown. Binding seen in cells or lysates may run through a third protein. Some entries that bind do so weakly or less than the wild type. Tags and fused reporters may be left off the sequences shown.
Molecular target: T1, GST-CEP-1/p53 fusion protein (C. elegans) (UniProt Q20646)
T1 sequence: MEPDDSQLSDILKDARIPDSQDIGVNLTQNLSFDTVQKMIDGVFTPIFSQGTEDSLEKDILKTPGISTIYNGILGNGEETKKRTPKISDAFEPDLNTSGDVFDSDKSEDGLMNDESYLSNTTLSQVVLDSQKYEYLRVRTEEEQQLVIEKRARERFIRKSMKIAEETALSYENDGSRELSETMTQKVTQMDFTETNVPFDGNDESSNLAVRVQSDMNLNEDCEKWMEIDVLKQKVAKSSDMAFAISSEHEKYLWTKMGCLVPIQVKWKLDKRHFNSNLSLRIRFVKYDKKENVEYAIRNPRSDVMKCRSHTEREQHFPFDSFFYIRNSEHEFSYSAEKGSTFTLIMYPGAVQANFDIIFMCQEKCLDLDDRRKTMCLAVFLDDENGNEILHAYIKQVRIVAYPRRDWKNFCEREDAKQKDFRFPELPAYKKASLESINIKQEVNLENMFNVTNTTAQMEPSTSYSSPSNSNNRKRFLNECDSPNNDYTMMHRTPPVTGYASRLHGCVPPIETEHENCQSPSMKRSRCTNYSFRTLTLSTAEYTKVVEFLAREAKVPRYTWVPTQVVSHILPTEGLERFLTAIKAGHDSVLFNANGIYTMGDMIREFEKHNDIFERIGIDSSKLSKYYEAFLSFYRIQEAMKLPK
Experiment: pull-down; purified GST or GST-CEP-1 immobilised on glutathione-Sepharose beads, incubated with [35S]methionine-labeled in vitro translated NHR-14 at 4 °C for more than 2 h; SDS-PAGE and autoradiography; only the target purified

binding: binds
B1: [35S]methionine-labeled NHR-14 (protein, UniProt O02151 1-435)
chain: MDFLISTSLSESTSTSADFCVVCGDKAIGKHYGAVACNGCKGFFRRSVWQNLQYTCRFNKQCNIDKDHRNACRYCRFQKCLADGMKPEAIQNERDRIGSTKRRKRSGANSENNSDSEGTPSPKIEVMGNSVSRKLIEMLLDIEHRLASNQSMNALLRDESEMKNSRQRAVNYLIGWTNMLHPLPEVPLADKVLLLKKFSSAFTLLGTLQRSMALPHFVLPNDQVLSISASHPPELFEALTRIIDELLTPLRRLRTDHAEFSCLKALLLLNPDVVGISNNTRERIREARDALLKTLFAYMSNTQNSIDASLRVSSLLMIIPSLISVSSSIMEFPALSDLFGLGDVIKRDTISPKIETPPLEMKPMMPKIAQPPVTSAPTVPTNIMMNKDLISQIMNNPQLFPLLPMPQTASPPMSFMGQSEFGCHLQSMPVKVILS
modifications: [35S]methionine-labeled

From PMC9438139
